Counter-ions that a name gives are not always drawn. This is one part of the list. This data set is noisy: repeats of one test often differ as much as different tests do.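 A screen tested FDA-approved drugs combined with one-eighth-MIC colistin against a clinical mcr-1-positive, multidrug-resistant E. coli isolate, measuring OD600 at 24 h. Controls were untreated bacteria (growth) and broth alone (blank). An OD600 under 0.2 marked a combination as active.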
Test system: Escherichia coli 42 (mcr-1-positive clinical isolate)
Assay: OD600 after 24 h growth with compound plus colistin (absorbance units (OD600)); higher = more bacterial growth (less inhibition)
Conditions: first compound 25 µM; colistin concentration 0.5 ug/mL; incubation time 24 h; 37 °C

OD600, inactive:
CC1(C)S[C@@H]2[C@H](NC(=O)[C@H](N)c3ccc(O)cc3)C(=O)N2[C@H]1C(=O)O [Amoxicillin trihydrate] + CCC(C)CCCC(=O)N[C@@H](CCN)C(=O)N[C@H](C(=O)N[C@@H](CCN)C(=O)N[C@H]1CCNC(=O)[C@H]([C@@H](C)O)NC(=O)[C@H](CCN)NC(=O)[C@H](CCN)NC(=O)[C@H](CC(C)C)NC(=O)[C@@H](CC(C)C)NC(=O)[C@H](CCN)NC1=O)[C@@H](C)O [colistin] 1.07, CCC1(c2ccccc2)C(=O)NCNC1=O [Primidone] + CCC(C)CCCC(=O)N[C@@H](CCN)C(=O)N[C@H](C(=O)N[C@@H](CCN)C(=O)N[C@H]1CCNC(=O)[C@H]([C@@H](C)O)NC(=O)[C@H](CCN)NC(=O)[C@H](CCN)NC(=O)[C@H](CC(C)C)NC(=O)[C@@H](CC(C)C)NC(=O)[C@H](CCN)NC1=O)[C@@H](C)O [colistin] 0.893, N=C(N)NC(=O)Cc1c(Cl)cccc1Cl [Guanfacine hydrochloride] + CCC(C)CCCC(=O)N[C@@H](CCN)C(=O)N[C@H](C(=O)N[C@@H](CCN)C(=O)N[C@H]1CCNC(=O)[C@H]([C@@H](C)O)NC(=O)[C@H](CCN)NC(=O)[C@H](CCN)NC(=O)[C@H](CC(C)C)NC(=O)[C@@H](CC(C)C)NC(=O)[C@H](CCN)NC1=O)[C@@H](C)O [colistin] 0.74, CCN(CC)CC(=O)Nc1c(C)cccc1C [Lidocaine hydrochloride] + CCC(C)CCCC(=O)N[C@@H](CCN)C(=O)N[C@H](C(=O)N[C@@H](CCN)C(=O)N[C@H]1CCNC(=O)[C@H]([C@@H](C)O)NC(=O)[C@H](CCN)NC(=O)[C@H](CCN)NC(=O)[C@H](CC(C)C)NC(=O)[C@@H](CC(C)C)NC(=O)[C@H](CCN)NC1=O)[C@@H](C)O [colistin] 1.03

Source: the supplement of paper PMC11546906
